Assay results taken from patent publication US9517252B2, “p53 activating peptides” (Agency for Science, Technology and Research, priority 2011, dated 2016).

System: IVT-synthesized p53
Assay: Effect of peptide on IVT translation of p53 (DO-1 western blot)
Conditions: 100 μM biotin-peptide vs DMSO blank

In the case of VRHQHVGATILGWK [Pap-VRH], the “levels of mutant p53 translation” value is reported as “no changes”.
